These are yes or no findings as the source states them, for the method shown. For part of these data: In cells and extracts the contact can be indirect. Some entries that bind do so weakly or less than the wild type. Tags and fused reporters may be left off the sequences shown.

Assay [1] has as its target T1, OsTGA3 (yeast two-hybrid fusion) (rice (Oryza sativa)) (UniProt Q6IVC3).
T1 sequence: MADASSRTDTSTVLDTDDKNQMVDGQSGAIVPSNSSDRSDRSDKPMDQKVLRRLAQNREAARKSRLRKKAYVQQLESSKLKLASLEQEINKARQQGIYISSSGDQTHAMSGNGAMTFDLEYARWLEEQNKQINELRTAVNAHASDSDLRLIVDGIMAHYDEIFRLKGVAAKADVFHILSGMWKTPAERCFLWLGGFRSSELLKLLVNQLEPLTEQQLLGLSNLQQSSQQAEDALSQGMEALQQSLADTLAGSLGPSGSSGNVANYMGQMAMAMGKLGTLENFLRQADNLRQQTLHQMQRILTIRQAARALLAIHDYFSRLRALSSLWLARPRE
Description: two-hybrid; … Y2H system (Clontech); OsTGAs in pGBKT7 (bait), NHs or OsTGAs in pGADT7 (prey); co-transformed into yeast; growth on SD without leucine, tryptophan and histidine with 1 to 10 mM 3-AT; images on the third day.

Assay [2] concerns the target T2, OsTGA5 (yeast two-hybrid fusion) (rice (Oryza sativa)) (UniProt Q0JNL3).
T2 sequence: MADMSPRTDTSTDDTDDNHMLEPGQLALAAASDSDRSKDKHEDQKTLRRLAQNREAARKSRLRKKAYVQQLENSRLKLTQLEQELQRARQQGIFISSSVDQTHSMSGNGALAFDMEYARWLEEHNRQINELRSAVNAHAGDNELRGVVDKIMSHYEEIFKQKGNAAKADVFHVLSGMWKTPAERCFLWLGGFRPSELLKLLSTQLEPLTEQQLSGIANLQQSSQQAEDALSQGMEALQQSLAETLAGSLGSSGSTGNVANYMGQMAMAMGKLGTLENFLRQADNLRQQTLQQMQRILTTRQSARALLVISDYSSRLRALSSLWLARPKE
Described as above.

The target of assay [3] is T3, OsTGA2 (yeast two-hybrid fusion) (rice (Oryza sativa)) (UniProt Q6IVC2).
T3 sequence: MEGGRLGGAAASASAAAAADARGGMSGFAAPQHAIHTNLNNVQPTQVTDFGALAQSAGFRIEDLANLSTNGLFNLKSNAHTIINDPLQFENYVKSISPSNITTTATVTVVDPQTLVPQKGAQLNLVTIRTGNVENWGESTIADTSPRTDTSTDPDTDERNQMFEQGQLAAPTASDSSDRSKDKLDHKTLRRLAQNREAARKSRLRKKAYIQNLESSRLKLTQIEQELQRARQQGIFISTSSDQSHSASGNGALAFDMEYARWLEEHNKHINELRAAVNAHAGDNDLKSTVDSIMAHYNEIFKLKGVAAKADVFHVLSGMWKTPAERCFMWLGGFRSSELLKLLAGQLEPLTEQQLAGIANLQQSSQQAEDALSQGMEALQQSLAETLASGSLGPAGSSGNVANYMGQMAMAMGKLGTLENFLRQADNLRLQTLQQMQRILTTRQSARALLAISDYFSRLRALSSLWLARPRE
The description is as above.

Assay [4] addresses T4, OsTGA3 (BiFC split-YFP fusion) (rice (Oryza sativa)) (UniProt Q6IVC3).
T4 sequence: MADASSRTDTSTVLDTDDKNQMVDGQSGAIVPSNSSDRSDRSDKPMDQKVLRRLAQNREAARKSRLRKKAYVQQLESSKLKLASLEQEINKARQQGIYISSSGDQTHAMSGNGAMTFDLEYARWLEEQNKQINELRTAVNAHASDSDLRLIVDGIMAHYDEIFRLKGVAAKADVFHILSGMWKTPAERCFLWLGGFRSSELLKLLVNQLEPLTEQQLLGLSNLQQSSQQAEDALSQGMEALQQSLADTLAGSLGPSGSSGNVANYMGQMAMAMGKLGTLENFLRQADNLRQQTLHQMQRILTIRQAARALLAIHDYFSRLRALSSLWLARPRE
The experiment in a line: split reporter; BiFC in rice protoplasts transfected using PEG; OsTGAs fused to cYFP (and nYFP for dimer tests), NHs fused to nYFP; reconstituted YFP seen by confocal microscopy.

In assay [5] the target is T5, OsTGA2 (BiFC split-YFP fusion) (rice (Oryza sativa)) (UniProt Q6IVC2).
T5 sequence: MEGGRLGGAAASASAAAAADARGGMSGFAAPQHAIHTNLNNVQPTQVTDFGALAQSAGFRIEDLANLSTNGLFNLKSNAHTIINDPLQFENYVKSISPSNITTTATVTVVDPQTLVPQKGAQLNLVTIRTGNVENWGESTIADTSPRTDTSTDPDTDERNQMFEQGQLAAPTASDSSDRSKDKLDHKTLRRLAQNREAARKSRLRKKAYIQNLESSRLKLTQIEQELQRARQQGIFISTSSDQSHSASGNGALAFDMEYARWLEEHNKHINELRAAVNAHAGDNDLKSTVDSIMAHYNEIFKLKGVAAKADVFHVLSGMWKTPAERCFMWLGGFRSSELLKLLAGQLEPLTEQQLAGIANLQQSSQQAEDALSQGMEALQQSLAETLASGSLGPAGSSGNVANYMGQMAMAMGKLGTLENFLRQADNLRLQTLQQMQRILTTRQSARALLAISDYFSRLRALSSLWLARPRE
Described as above.

Assay [6] has as its target T6, OsTGA5 (BiFC split-YFP fusion) (rice (Oryza sativa)) (UniProt Q0JNL3).
T6 sequence: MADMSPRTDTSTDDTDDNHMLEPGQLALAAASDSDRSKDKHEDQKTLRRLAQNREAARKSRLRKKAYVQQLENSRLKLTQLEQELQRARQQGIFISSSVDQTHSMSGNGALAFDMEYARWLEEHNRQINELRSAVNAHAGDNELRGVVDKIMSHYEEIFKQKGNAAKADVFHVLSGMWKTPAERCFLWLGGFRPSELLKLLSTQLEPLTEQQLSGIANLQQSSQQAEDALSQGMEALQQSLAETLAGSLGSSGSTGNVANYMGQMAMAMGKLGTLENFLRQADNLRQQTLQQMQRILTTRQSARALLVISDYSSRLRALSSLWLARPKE
Described as above.

B1: OsNH3, rice NPR1 homolog 3 (yeast two-hybrid fusion) (protein, UniProt Q75HA6 1-589)
chain: METSTISFSSSSPPSPPPPQPAPGDIDAVSLGRLSRNLENLLDPAFLNCADAEIVLASGGGDPGGGAVVGVHRCILAARSRFFYDHFSSAPAPAPATAGDKPQLDLDGLVPGGRHIGRDALVAVLSYLYTGRLRSAPPEAAACLDDGCSHDACRPAIDFVVESTYAASGFQISELVSLFQRRLSDFVNKALAEDILPILVVASTCHLPELLNQCIQRVANSNLDNRYLEKRLPDDLYAKLKEFRVPDEPHSGILDPEHEKRVRNIHKALDSDDVDLVGMLLKESPVTLDDAFAIHYAAAYCEPKVLAELLKLESANVNLKNSSGYTPLHMACMRREPDIIVSLIEKGASVLERTQDGRDALTICKRLTREKDRNEKSEKCKERSKAYLCIGVLQQEIKRRPQILEDQMSAEESIATPLLVDNFHMRLLNLENRVAFARIFFPSEAKLVMRIAQADSTQEFAGLTSANFSKLKEVDLNETPTMQNRRLRERLDALTKTVELGRRYFPHCSEVLDKFLNEESTDLILLESGTAEDQQTKRMRFSELREDVRKAFTKDKAAGAAISSSTSASSSPRYETKLRPGNKKGKLSR
As to B1, the binding entry in assay [1], in assay [2] and in assay [3] was “binds” throughout.

B2: OsNH2, rice NPR1 homolog 2 (BiFC nYFP fusion) (protein, UniProt Q0JJ01 1-635)
chain: MPARSAVVVIAMEPSSSITIASSSSYLSNGSSPCSVSLAPPGAGAVAAQAAPVAAGEGGGGGGGGGGGGSSSVEVVSLNRLSANLERLLLDSDLDCSDADVDVADGGPPVPVHRCILAARSTFFYNLFAARGRGGDGAAGGGGGGGGGGGERTGGRPRYKMEELVPGGRVGRDAFLSLLGYLYTGKLRPAPDDVVSCADPMCPHDSCPPAIRFNVEQMYAAWAFKITELISLFQRRLLNFVDKTLVEDVLPILQVAFHSELTPVLEKCIRRIARSNLDNVSLDKELPPEVAVQIKEIRQKSQPNEGDTVISDPVHEKRVRRIHRALDSDDVELVKLLLNESEITLDDANALHYAAAYCDSKVVSELLDLRLANLNLKNSRGYTALHLAAMRREPAIIMCLLNKGAAVSQLTADGQSAMSICRRLTRMKDYNTKMEQGQESNKDRLCIDILDREMIRKPMAVEDSVTSPLLADDLHMKLLYLENRVAFARLFFPAEAKVAMQIAQADTTPEFGIVPAASTSGKLKEVDLNETPVTQNKRLRSRVDALMKTVELGRRYFPNCSQVLDKFLEDDLPDSPDALDLQNGTSDEQNVKRMRFCELKEDVRKAFSKDRADNSMFSILSSSSSSSPPPKVAKK
With B2, the binding result in assay [4], in assay [5] and in assay [6] was “binds weakly” throughout.

The record behind these values is publication PMC6239283.
